# Test results reported in PubChem BioAssay AID540256 (National Center for Advancing Translational Sciences (NCATS), 2011).
# Where “and” joins values, the source holds several entries; their conditions need not be identical. Equal entries are not always repeated. Among all 300,000 compounds or so, about 3,700 (1.2%) were called active. The shares of active, inactive and inconclusive entries below differ from those in the screen. The call rests on the fitted dose curve; tested in HEK293 cells. Potencies beside an inconclusive call are fits to weak or partial responses and may not hold up.
# Assay: qHTS for Inhibitors of binding or entry into cells for Lassa Virus; further: nearly all actives have a fitted effect of over 50% in size
# Conditions: Lassa virus pseudotype entry inhibition, cell reporter; activity change, negative = inhibition: at 37.9 µM (top of the series) unless noted
# On the % scale 0 is the no-effect control and ±100 the full control effect; potency means the concentration at half of the fitted maximal effect.
SMILES,Potency,"activity change, negative = inhibition"
COc1ccccc1/C=C/C(=O)NCC(=O)N/N=C/c1cc(Br)ccc1OC,"inconclusive: 8.91 µM [inhibitor, partial curve, poor fit]",–
CN(C)c1ccc(/C=C/c2cc[n+](C)c3ccccc23)cc1,"inconclusive: 22.4 µM [inhibitor, single point] and inconclusive: 7.08 µM [inhibitor, partial curve, poor fit]",–
CCN(C(=O)COC(=O)c1cc(-c2ccc(C)o2)nc2ccccc12)C1CCS(=O)(=O)C1 (stereo not given),"inconclusive: 35.5 µM [inhibitor, partial curve, poor fit]",–
Cc1onc(-c2ccccc2)c1C(=O)Nc1cccc(OC(C)C)c1,"inconclusive: 2.51 µM [inhibitor, full curve]",–
CC(C)c1ccc(CCNC(=O)c2ccc([N+](=O)[O-])cc2)cc1,"inconclusive: 11.2 µM [inhibitor, partial curve, poor fit]",–
CCOc1ccc(C2c3c(-c4ccc(C)cc4)n[nH]c3C(=O)N2c2ccc(Cl)cc2)cc1 (stereo not given),"inconclusive: 1.78 µM [inhibitor, partial curve, poor fit]",–
O=c1cc(-c2ccccc2F)oc2ccccc12,–,inactive: -6.29%
O=C(CSc1nnc(NC(=O)NC2CCCCC2)s1)Nc1ccccc1F,"inconclusive: 2.82 µM [activator, full curve, poor fit]",–
COc1ccc(CCNC(=O)CCCCCN2C(=O)c3ccccc3C2=O)cc1,–,inactive: 20.6%
Cc1ccc(N2CCN(c3ccc(C)cc3)C2c2cccnc2)cc1,"inconclusive: 23.1 µM [inhibitor, partial curve, poor fit]",–
COc1cccc(CNC(=O)CN2C(=O)COc3ccc(S(=O)(=O)N4CCC(C)CC4)cc32)c1,–,inactive: 8.34% [at 46.1 µM]
O=C(CSc1nc2c(oc3ccccc32)c(=O)n1CC1CCCO1)NCc1ccc(F)cc1 (stereo not given),"inconclusive: 0.224 µM [activator, full curve, poor fit]",–
CC(NC(=O)CN1CCN(S(=O)(=O)c2ccc(Br)cc2)CC1)c1ccccc1 (stereo not given),"inconclusive: 0.562 µM [inhibitor, full curve, poor fit]",–
Cc1cccc(N2CCN(C(=O)c3cccc(S(=O)(=O)N4CCOCC4)c3)CC2)c1C,"inconclusive: 14.1 µM [inhibitor, partial curve, poor fit]",–
CC(=O)c1ccc(N/N=C2/CCCNC2=O)cc1,–,inactive: 7.48% [at 46.1 µM]
O=C(CC1N=C2c3ccccc3N=C(SCc3ccc(Cl)cc3)N2C1=O)NCCc1ccccc1 (stereo not given),"inconclusive: 35.5 µM [inhibitor, single point]",–
c1ccc(CNCCC(Cc2ccccc2)c2ccco2)cc1 (stereo not given),"inconclusive: 35.5 µM [inhibitor, single point]",–
CCN(CC)S(=O)(=O)c1ccc(O)c(C(=O)OCC(=O)Nc2cc(C)c(C)cc2[N+](=O)[O-])c1,"inconclusive: 7.08 µM [inhibitor, full curve, poor fit]",–
CCN(CC)c1ccc(C(=O)NCc2ccc3c(c2)CCN3C(=O)c2ccccc2)cc1,–,inactive: -5.88% [at 46.1 µM]
Cc1ccc(S(=O)(=O)/C(C#N)=C/c2c(N3CCC(C(N)=O)CC3)nc3ccccn3c2=O)cc1,–,inactive: -1.88%
O=C(Nc1ccc(-c2cc(C(F)(F)F)nn2-c2ccccc2)cc1)c1cccc(F)c1,"inconclusive: 12.6 µM [inhibitor, partial curve, poor fit]",–
CCOC(=O)c1c(NC(=O)c2cc(CC)on2)sc(C)c1C,–,inactive: 0.215% [at 46.1 µM]

# Some values from the entries so far:
# Entry for `O=C(CSc1nnc(NC(=O)NC2CCCCC2)s1)Nc1ccccc1F` under Potency: inconclusive: 2.82 µM [activator, full curve, poor fit]
# Entry for `COc1ccccc1/C=C/C(=O)NCC(=O)N/N=C/c1cc(Br)ccc1OC` under Potency: inconclusive: 8.91 µM [inhibitor, partial curve, poor fit]
# Entry for `CCN(CC)S(=O)(=O)c1ccc(O)c(C(=O)OCC(=O)Nc2cc(C)c(C)cc2[N+](=O)[O-])c1` under Potency: inconclusive: 7.08 µM [inhibitor, full curve, poor fit]
# Entry for `Cc1ccc(N2CCN(c3ccc(C)cc3)C2c2cccnc2)cc1` under Potency: inconclusive: 23.1 µM [inhibitor, partial curve, poor fit]

# (next part)

SMILES,Potency,"activity change, negative = inhibition"
Cc1ccc(-c2[nH]ncc2/C=N/n2c(COc3ccccc3)nc3ccccc3c2=O)cc1,"inconclusive: 20 µM [inhibitor, single point]",–
Cc1ccc(C2CC2c2n[nH]c(=S)n2-c2ccc(C)cc2)cc1 (stereo not given),"inconclusive: 29.1 µM [inhibitor, single point]",–
COc1ccc(CN(C2CCCCC2C)S(=O)(=O)c2ccc(S(=O)(=O)N(C)C)cc2)cc1OC (stereo not given),"inconclusive: 7.94 µM [inhibitor, partial curve]",–
O=C(Nc1cccc(S(=O)(=O)N2CCCCCC2)c1)C1CCC1,"inconclusive: 22.4 µM [inhibitor, partial curve, poor fit]",–
O=C(O)c1cn(-c2ccccc2)c(=O)c2ccccc12,"inconclusive: 2.24 µM [activator, partial curve, poor fit]",–
C/C(CC1(O)C(=O)N(C)c2ccccc21)=N\O (stereo not given),–,inactive: 19.4%
CN(C)c1nc(Nc2ccccc2)nc(N(C)C)n1,–,inactive: 22.1%
CCN(CC)S(=O)(=O)c1ccc2c(c1)N(CC(=O)NCCc1ccc(OC)c(OC)c1)C(=O)CO2,–,inactive: -26.3% [at 46.1 µM]
O=C(C=Cc1ccccc1)Nc1cccc(C(=O)NCc2ccccc2)c1,–,inactive: 10.6% [at 46.1 µM]
COc1cc2[nH]c(C(=O)NCCc3ccccc3)cc2c(OC)c1OC,"inconclusive: 22.4 µM [inhibitor, single point]",–
CCOc1ccccc1NC(=O)c1cn(C2CCCC2)c(=O)c2c1c1ccccc1n2C,"inconclusive: 35.5 µM [activator, single point]",–
Cc1cc(C(=O)N/N=C/c2ccc([N+](=O)[O-])s2)n[nH]1,"inconclusive: 35.5 µM [inhibitor, single point]",–
S=C1c2ccccc2CN1c1ccccc1,–,inactive: 3.19%
COC1(OC)C(/C=C/c2ccc(Cl)cc2)C(C#N)(C#N)C1(OC)OC (stereo not given),"inconclusive: 15.8 µM [inhibitor, single point]",–
CC(=O)OC(C)(C)/C=C/C(=O)C(C)(O)C1C(O)CC2(C)C3CC=C4C(CC(O)C(=O)C4(C)C)C3(C)C(=O)CC12C (stereo not given),active: 0.126 µM,–
COc1cc2nc(CN3C(=O)c4ccccc4C3=O)oc(=O)c2cc1OC,–,inactive: 1.8%
CN(C)S(=O)(=O)c1cccc(C(=O)Nc2ccccc2N2CCCCC2)c1,"inconclusive: 11.2 µM [inhibitor, partial curve, poor fit]",–
CCCCN(C(=O)CSCC(=O)Nc1cccc(C)c1)c1c(N)n(Cc2ccccc2)c(=O)[nH]c1=O,–,inactive: -11.8%
COc1cc(-c2nc(-c3ccc(NC(=O)c4ccc(Br)o4)cc3)no2)cc(OC)c1OC,"inconclusive: 29.1 µM [inhibitor, single point]",–
CCOC(=O)N1CCN(C(=O)C2CCCN(S(=O)(=O)c3c(C)cc(C)cc3C)C2)CC1 (stereo not given),"inconclusive: 35.5 µM [inhibitor, partial curve, poor fit]",–
Cc1ccc(-c2ccc(C(=O)Nc3cccc(F)c3)o2)c2ccccc12,"inconclusive: 18.4 µM [inhibitor, single point]",–
CN(CCO)c1cc(Sc2nc3ccccc3s2)c2nonc2c1[N+](=O)[O-],"inconclusive: 29.1 µM [inhibitor, single point]",–

SMILES,Potency,"activity change, negative = inhibition"
COc1ccc(N2CCN(c3ccc(-c4nc(-c5ccccc5C)no4)cc3[N+](=O)[O-])CC2)cc1,–,inactive: 4.9% [at 46.1 µM]
Cc1ccc(NC(=S)Nc2cccnc2)c(S(=O)(=O)N2CCCCC2)c1,"inconclusive: 7.08 µM [inhibitor, partial curve]",–
CCc1c(C)nc2c(-c3ccccc3)c(C)[nH]n2c1=O,–,inactive: -2.36%
CCCCC(=O)N(CCOC)c1nnc(-c2ccc(OC)cc2)s1,–,inactive: -1.84%
Cc1ccc(-c2nnc(N3CCCCC3)c3ccccc23)cc1S(=O)(=O)NCC1CCCO1 (stereo not given),"inconclusive: 18.3 µM [inhibitor, single point]",–
Cc1ccc(C)c(S(=O)(=O)N2CCN(c3ncnc4sccc34)CC2)c1,"inconclusive: 0.794 µM [inhibitor, full curve, poor fit]",–
Cc1cccc(N2CCN(C(=O)c3cccc(N4CCCC4=O)c3)CC2)c1C,"inconclusive: 3.55 µM [inhibitor, full curve]",–
COCCCNC(=O)c1ccc2c(c1)N=C(C)c1c(C)ccc(C)c1S2,"inconclusive: 39.8 µM [inhibitor, partial curve, poor fit]",–
CC1CC(NC(=O)Cc2ccc(Br)cc2)CC(C)(C)C1 (stereo not given),–,inactive: -12%
COc1ccc(C(=O)NC(=O)NC2(C(Cl)(Cl)Cl)OCCO2)cc1,"inconclusive: 3.55 µM [inhibitor, single point]",–
C[C@]12CC[C@@H]3c4ccc(OC(=O)c5ccccc5)cc4CC[C@H]3[C@@H]1CC[C@@H]2O,–,inactive: 3.16%
CCOC(=O)N1CCN(C(=O)CSCc2ccccc2)CC1,"inconclusive: 11.2 µM [inhibitor, partial curve, poor fit]",–
Cc1oc2c(c1C(=O)NCCCC(=O)O)CCCC2,"inconclusive: 29.1 µM [activator, single point]",–
O=C(NNc1nc2ccccc2o1)c1ccccc1,"inconclusive: 1.26 µM [inhibitor, full curve, poor fit]",–
COc1ccc(C(OCC(O)CNC(C)c2ccccc2)c2ccc(OC)cc2)cc1 (stereo not given),"inconclusive: 28.2 µM [inhibitor, single point]",–
CC(C)CCOC(=O)/C(=C/c1ccco1)NC(=O)/C=C/c1ccccc1,–,inactive: -10.1%
O=C1c2cccc3c([N+](=O)[O-])ccc(c23)C(=O)N1Cc1cccnc1,"inconclusive: 10 µM [inhibitor, partial curve, poor fit]",–
CC(=O)N(Cc1ccc(F)cc1)C1=C(NCc2ccccc2)C(=O)c2ccccc2C1=O,active: 6.31 µM,–
Cc1nnc(NC(=O)CSc2nccn2-c2cccc(Cl)c2)s1,"inconclusive: 2.51 µM [inhibitor, partial curve, poor fit]",–
C=C(C)CNC(=S)NNC(=O)c1ccc(Br)cc1,"inconclusive: 20 µM [inhibitor, single point]",–
CC(C)(C)c1ccc(S(=O)(=O)Nc2ccc(Cc3ccncc3)cc2)cc1,active: 10 µM,–
